From paper PMC10585713
No constants are given. Whether binding was seen depends on the method and setting. Tags and fused reporters may be left off the sequences shown.

Biological target: Vitis vinifera B-box protein 44 (VvBBX44), fused to the Gal4 DNA-binding domain (Vitis vinifera 'Jingxiu')
Experiment: two-hybrid; Clontech yeast two-hybrid system; AD-VvMYBA1 (pGADT7) with BD-VvBBX44 (pGBKT7); growth tested on SD/-Leu/-Trp and on SD/-Leu/-Trp/-His/-Ade with 40 mg/L X-alpha-Gal and 200 ng/mL AbA

- binding: no binding
B1: VvMYBA1 (Vitis vinifera MYBA1), fused to the Gal4 activation domain (protein, UniProt Q6L9M9 1-250)
chain: MESLGVRKGAWIQEEDVLLRKCIEKYGEGKWHLVPLRAGLNRCRKSCRLRWLNYLKPDIKRGEFALDEVDLMIRLHNLLGNRWSLIAGRLPGRTANDVKNYWHSHHFKKEVQFQEEGRDKPQTHSKTKAIKPHPHKFSKALPRFELKTTAVDTFDTQVSTSRKPSSTSPQPNDDIIWWESLLAEHAQMDQETDFSASGEMLIASLRTEETATQKKGPMDGMIEQIQGGEGDFPFDVGFWDTPNTQVNHLI
